Source: patent US20220048878A1, “IMPROVEMENT IN OR RELATING TO ORGANIC COMPOUNDS” (GIVAUDAN SA, priority 2018, published 2022)
“Also recorded” adds a separate entry of the source. Some entries repeat one wording, which the source may state once for all of them.

assay: not given; conditions: background statement; cited from earlier work

SMILES | Odor profile of known fragrance ingredients
CC(C)=CC1CC(C)CCO1 (racemic) [Rose Oxide, 4-methyl-2-(2-methylprop-1-en-1-yl)tetrahydro-2H-pyran] | floral, rosy, green natural odor profile with some metallic side notes
CC(C)CC1CC(C)CCO1 (stereo not shown) [Dihydroroseoxide, 2-isobutyl-4-methyltetrahydro-2H-pyran] | too fresh terpenic-terpineol, and less rosy-fruity

assay: Odor description; conditions: applicant's evaluation; single isomers after preparative or chiral GC

SMILES | Odor description
CCC(C)=C[C@@H]1C[C@H](C)CCO1 (relative stereo) [rel-(2S,4R)-4-methyl-2-(2-methylbut-1-en-1-yl)tetrahydro-2H-pyran] | substantially similar odor characteristics (odor profile and evaporation profile) as Rose Oxide
CC/C(C)=C/[C@H]1C[C@H](C)CCO1 [(2R,4R)-4-methyl-2-((E)-2-methylbut-1-en-1-yl)tetrahydro-2H-pyran] | slightly floral, rose oxide, very weak
CC/C(C)=C\[C@H]1C[C@H](C)CCO1 [(2R,4R)-4-methyl-2-((Z)-2-methylbut-1-en-1-yl)tetrahydro-2H-pyran] | very weak, almost odorless
CC/C(C)=C/[C@H]1C[C@@H](C)CCO1 [(2R,4S)-4-methyl-2-((E)-2-methylbut-1-en-1-yl)tetrahydro-2H-pyran] | very weak, almost odorless
CC/C(C)=C\[C@H]1C[C@@H](C)CCO1 [(2R,4S)-4-methyl-2-((Z)-2-methylbut-1-en-1-yl)tetrahydro-2H-pyran] | very weak, almost odorless
CC/C(C)=C/[C@@H]1C[C@H](C)CCO1 [(2S,4R)-4-methyl-2-((E)-2-methylbut-1-en-1-yl)tetrahydro-2H-pyran] | rosy, rose oxide, metallic, weak
CC/C(C)=C\[C@@H]1C[C@H](C)CCO1 [(2S,4R)-4-methyl-2-((Z)-2-methylbut-1-en-1-yl)tetrahydro-2H-pyran] | rosy, rose oxide, metallic, strong
CC/C(C)=C/[C@@H]1C[C@@H](C)CCO1 [(2S,4S)-4-methyl-2-((E)-2-methylbut-1-en-1-yl)tetrahydro-2H-pyran] | very weak, almost odorless
CC/C(C)=C\[C@@H]1C[C@@H](C)CCO1 [(2S,4S)-4-methyl-2-((Z)-2-methylbut-1-en-1-yl)tetrahydro-2H-pyran] | very weak, almost odorless
CC1CCOC(C=O)C1 (stereo not shown) [Example 1a, 4-Methyltetrahydro-2H-pyran-2-carbaldehyde] | green, fatty, trans-2-hexenal, oily
CCC(C)=CC1CC(C)CCO1 (stereo not shown) [Example 1b, 4-methyl-2-(2-methylbut-1-en-1-yl)tetrahydro-2H-pyran] | metallic, mineral, rosy, rose oxide
C[C@@H]1CCOC(C=O)C1 (stereo partly drawn) [Example 2a, (4R)-4-methyltetrahydro-2H-pyran-2-carbaldehyde] | green, fatty, oily
CCC(C)=CC1CC(C)CCO1 (stereo not drawn) [cis-E] | rosy, rose oxide, metallic, weak
CCC(C)=CC1CC(C)CCO1 (stereo not drawn) [cis-Z] | rosy, rose oxide, metallic, strong
CCC(C)=CC1CC(C)CCO1 (stereo not drawn) [trans-E] | slightly floral, rose oxide, very weak
CCC(C)=CC1CC(C)CCO1 (stereo not drawn) [trans-Z] | very weak, almost odorless

same assay, conditions: applicant's evaluation; single isomers after preparative or chiral GC; listed as 1′a

SMILES | Odor description
CC/C(C)=C\[C@@H]1C[C@H](C)CCO1 [(2S,4R)-4-methyl-2-((Z)-2-methylbut-1-en-1-yl)tetrahydro-2H-pyran] | main odor vector; also recorded: strong rosy, rose oxide, metallic odor
